# The list shows a part of the results. These are further read-outs of the screen, such as a control signal, another cell line or another target. No call is given for them.
# Assay: NIH3T3 cell viability loss – plate reader, cherry-pick, two tests, cytotoxicity control, dose response (AID 651900)
# Settings: test 2 concentration series, at 26 µM
row,SMILES,activity
1,Cc1nnc(N2CCC(C(=O)N3CCCCC3)CC2)c2nn(-c3ccc(Cl)cc3)c(C)c12,-5.02%
2,Cc1nc2sc(C(c3ccc(Cl)cc3)N3CCN(c4ccccc4F)CC3)c(O)n2n1 (stereo not given),-4.2%
3,COc1ccc(-c2n[nH]c3c2CN(C(=O)c2ccc(OC)c(OC)c2)CC3)cc1,6.6%
4,COC(=O)C1=C(C)Nc2sc(C(N)=O)c(N)c2C1c1ccncc1 (stereo not given),4.49%
5,O=C(Nc1ncc2c(n1)CC(c1ccco1)CC2=O)c1ccco1 (stereo not given),2.67%
6,C/C=C(/C)C(=O)OC(C)(C)[C@@H]1Cc2c(ccc3ccc(=O)oc23)O1,2.9%
7,COC(=O)c1c(C(=O)OC)c(-c2ccc(F)cc2)n2c1CS(=O)C2 (stereo not given),-4.71%
8,COc1ccc(-c2nc3cnccn3c2Nc2ccc3c(c2)OCO3)cc1,-11.8%
9,COc1ccc(NC(=O)c2ccc(Cl)nc2)cc1S(=O)(=O)N1CCOCC1,-4.21%
10,CCCc1cc(=O)oc2c3c(cc(OCC(=O)NCCCn4ccnc4)c12)OC(C)(C)CC3,-5.78%
11,CCCOC(=O)c1cccc(NC(=O)c2cccnc2)c1,-3.16%
12,Cc1nc2c(C(=O)N3CCN(c4ccccn4)CC3)cnn2c(C)c1Cc1cccc(Cl)c1,5.14%
13,O=C(Nc1cccnc1)c1ccc(Oc2ccccc2)cc1,5.57%
14,O=C(Nc1cccnc1)c1ccc(N2CCCC2)c([N+](=O)[O-])c1,0.919%
15,Nn1c(SC/C=C/c2ccccc2)nnc1-c1cccnc1,11.5%

# Reprinted from above (2 entries):
row,SMILES,activity
1,Cc1nnc(N2CCC(C(=O)N3CCCCC3)CC2)c2nn(-c3ccc(Cl)cc3)c(C)c12,-5.02%
2,Cc1nc2sc(C(c3ccc(Cl)cc3)N3CCN(c4ccccc4F)CC3)c(O)n2n1 (stereo not given),-4.2%

# Source: PubChem BioAssay AID651900 (Broad Institute, 2012)
